The source of these data is patent publication US9732119B2, “Immunomodulators” (BRISTOL-MYERS SQUIBB COMPANY, priority 2014, dated 2017).

Protein sequences, listed by entry. Tags and fused reporters are not part of them. Chains listed by the source or under a name are the forms on record and can include a tag or linker.
UniProt Q9NZQ7, with tags, fused parts or gaps: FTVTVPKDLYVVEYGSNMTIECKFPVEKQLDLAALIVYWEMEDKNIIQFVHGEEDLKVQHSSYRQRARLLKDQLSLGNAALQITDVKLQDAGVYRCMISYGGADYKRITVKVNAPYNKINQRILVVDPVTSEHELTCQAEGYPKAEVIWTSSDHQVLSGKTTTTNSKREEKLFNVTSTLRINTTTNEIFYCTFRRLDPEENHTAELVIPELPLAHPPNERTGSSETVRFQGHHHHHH

SMILES strings stand for the structures.

The test deals with T1, PD-1-Ig binding to PD-L1-TVMV-His (PD-L1-His) (Homo sapiens, UniProt Q9NZQ7).
T1 construct: hPDL1(19-239)-TVMV-His; made in house; host or cells: HEK293T cells
The test is described as follows: PD-1/PD-L1 Homogenous Time-Resolved Fluorescence (HTRF) binding assay. As to conditions: PD-1-Ig (20 nM) / PD-L1-His (10 nM); range classes. The source says: The ability of the macrocyclic peptides of the present disclosure to bind to PD-L1 was investigated using a PD-1/PD-L1 Homogenous Time-Resolved Fluorescence (HTRF) binding assay.
Homogenous Time-Resolved Fluorescence (HTRF) Assays of Binding of Soluble PD-1 to Soluble PD-L1. Soluble PD-1 and soluble PD-L1 refers to proteins with carboxyl-end truncations that remove the transmembrane-spanning regions and are fused to heterologous sequences, specifically the Fc portion of the human immunoglobuling G sequence (Ig) or the hexahistidine epitope tag (His). All binding studies were performed in an HTRF assay buffer consisting of dPBS supplemented with 0.1% (w/v) bovine serum albumin and 0.05% (v/v) Tween-20. For the PD-1-Ig/PD-L1-His binding assay, inhibitors were pre-incubated with PD-L1-His (10 nM final) for 15 m in 4 μl of assay buffer, followed by addition of PD-1-Ig (20 nM final) in 1 μl of assay buffer and further incubation for 15 m. PD-L1 fusion proteins from either human, cynomologous macaques, mouse, or other species were used. HTRF detection was achieved using europium crypate-labeled anti-Ig monoclonal antibody (1 nM final) and allophycocyanin (APC) labeled anti-His monoclonal antibody (20 nM final). Antibodies were diluted in HTRF detection buffer and 5 μl was dispensed on top of binding reaction. […]
On the technique in general: Time-resolved FRET reads energy transfer from a long-lived donor to a nearby acceptor.

Take `CCCC[C@H]1C(=O)N(C)[C@@H](CCCC)C(=O)N[C@@H](CC(C)C)C(=O)N[C@H](C(=O)NCC(N)=O)CCCC(=O)N[C@@H](Cc2ccc(O)cc2)C(=O)N(C)[C@@H](C)C(=O)N[C@@H](CC(N)=O)C(=O)N2CCC[C@H]2C(=O)N[C@@H](CN)C(=O)N[C@@H](CC(C)C)C(=O)N2C[C@H](O)C[C@H]2C(=O)N[C@@H](Cc2c[nH]c3ccccc23)C(=O)N[C@@H](CCN)C(=O)N[C@@H](Cc2cn(CC(=O)O)c3ccccc23)C(=O)N1C` [Example 10514]: the IC50 (commonly the concentration needed to halve the response being measured) is 0.01 to 0.099 µM.
